Results published in PMC7600770.
These are yes or no findings as the source states them, for the method shown. Binding seen in cells or lysates may run through a third protein. These calls come from enrichment with a bait or labelling near it, and not all partners need be listed.

By UniProt entry, the sequences of proteins in these tests, tags left out. Where a name states a change or a piece, a line headed by the entry shows the natural chain unless it says otherwise.
UniProt O14980: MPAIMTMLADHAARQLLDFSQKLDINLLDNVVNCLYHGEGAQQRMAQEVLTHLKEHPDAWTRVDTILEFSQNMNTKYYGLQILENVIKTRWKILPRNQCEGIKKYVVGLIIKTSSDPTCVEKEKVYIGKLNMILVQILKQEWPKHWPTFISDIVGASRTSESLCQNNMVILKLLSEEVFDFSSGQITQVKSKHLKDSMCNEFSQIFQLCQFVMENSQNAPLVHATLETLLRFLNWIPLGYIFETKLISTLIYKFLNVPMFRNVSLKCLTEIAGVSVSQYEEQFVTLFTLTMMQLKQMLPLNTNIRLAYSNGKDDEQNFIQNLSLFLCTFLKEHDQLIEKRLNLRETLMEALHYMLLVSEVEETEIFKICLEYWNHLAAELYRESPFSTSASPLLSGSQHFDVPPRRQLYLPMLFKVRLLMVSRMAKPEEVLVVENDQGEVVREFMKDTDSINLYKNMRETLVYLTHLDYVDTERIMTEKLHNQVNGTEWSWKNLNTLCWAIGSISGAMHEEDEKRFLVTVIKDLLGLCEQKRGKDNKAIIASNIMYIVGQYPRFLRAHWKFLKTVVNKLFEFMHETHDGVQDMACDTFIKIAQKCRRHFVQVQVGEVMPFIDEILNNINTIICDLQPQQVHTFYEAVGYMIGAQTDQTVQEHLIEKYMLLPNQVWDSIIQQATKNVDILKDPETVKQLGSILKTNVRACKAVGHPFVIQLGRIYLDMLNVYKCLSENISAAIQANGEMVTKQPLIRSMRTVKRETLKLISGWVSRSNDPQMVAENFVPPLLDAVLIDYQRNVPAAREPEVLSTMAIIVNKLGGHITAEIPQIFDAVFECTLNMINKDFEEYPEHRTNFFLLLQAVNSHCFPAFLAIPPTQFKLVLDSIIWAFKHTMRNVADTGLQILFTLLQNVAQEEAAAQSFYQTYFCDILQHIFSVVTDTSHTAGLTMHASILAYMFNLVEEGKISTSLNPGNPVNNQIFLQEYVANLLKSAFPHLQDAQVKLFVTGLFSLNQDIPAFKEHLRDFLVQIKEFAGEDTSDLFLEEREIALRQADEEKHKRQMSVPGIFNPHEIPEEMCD
UniProt Q9UJV9: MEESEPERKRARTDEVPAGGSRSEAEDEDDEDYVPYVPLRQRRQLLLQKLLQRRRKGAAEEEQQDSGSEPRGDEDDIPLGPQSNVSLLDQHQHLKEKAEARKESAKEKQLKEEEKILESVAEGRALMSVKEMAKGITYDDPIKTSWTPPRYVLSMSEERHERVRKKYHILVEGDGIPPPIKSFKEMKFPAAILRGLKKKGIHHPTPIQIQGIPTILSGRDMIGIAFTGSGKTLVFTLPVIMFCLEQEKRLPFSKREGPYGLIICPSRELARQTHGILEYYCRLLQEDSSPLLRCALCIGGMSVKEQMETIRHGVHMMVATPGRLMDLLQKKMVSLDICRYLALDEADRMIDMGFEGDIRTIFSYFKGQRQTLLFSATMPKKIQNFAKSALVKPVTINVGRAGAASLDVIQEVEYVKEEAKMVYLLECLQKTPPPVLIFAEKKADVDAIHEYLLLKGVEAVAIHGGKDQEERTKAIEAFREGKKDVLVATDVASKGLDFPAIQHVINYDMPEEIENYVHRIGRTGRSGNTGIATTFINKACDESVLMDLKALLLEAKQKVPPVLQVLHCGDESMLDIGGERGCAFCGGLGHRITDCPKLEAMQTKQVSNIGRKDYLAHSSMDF
UniProt Q14974: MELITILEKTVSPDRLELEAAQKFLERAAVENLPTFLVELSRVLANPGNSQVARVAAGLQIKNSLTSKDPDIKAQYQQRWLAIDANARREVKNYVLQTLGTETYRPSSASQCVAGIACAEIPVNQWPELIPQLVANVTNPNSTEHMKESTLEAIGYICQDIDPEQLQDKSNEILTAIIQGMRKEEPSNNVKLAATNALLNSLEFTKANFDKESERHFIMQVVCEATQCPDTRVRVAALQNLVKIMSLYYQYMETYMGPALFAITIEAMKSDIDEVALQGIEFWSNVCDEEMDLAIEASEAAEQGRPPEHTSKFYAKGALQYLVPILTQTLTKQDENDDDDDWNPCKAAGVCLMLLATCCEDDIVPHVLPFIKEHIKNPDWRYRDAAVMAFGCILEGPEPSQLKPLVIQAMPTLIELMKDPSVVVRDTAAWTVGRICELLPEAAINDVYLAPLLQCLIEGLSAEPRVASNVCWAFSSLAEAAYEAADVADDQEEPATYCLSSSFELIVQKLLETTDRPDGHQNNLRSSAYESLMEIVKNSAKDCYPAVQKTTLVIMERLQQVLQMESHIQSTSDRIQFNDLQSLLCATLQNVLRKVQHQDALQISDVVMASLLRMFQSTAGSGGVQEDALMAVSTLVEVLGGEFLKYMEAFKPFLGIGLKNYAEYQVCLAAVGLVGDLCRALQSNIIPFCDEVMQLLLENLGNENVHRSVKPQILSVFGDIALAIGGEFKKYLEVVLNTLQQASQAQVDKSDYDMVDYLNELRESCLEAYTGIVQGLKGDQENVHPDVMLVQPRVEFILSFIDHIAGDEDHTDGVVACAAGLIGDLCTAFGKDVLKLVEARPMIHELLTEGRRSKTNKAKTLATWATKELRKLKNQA

How the values were obtained:
[1] = target: exportin 1 (XPO1), wild type (human (endogenous in U2940 and K1106)) (UniProt O14980); test: affinity purification with mass spectrometry; endogenous XPO1 immunoprecipitated with anti-XPO1 Ab on Dynabeads Protein A from whole-cell lysates of K1106 and MedB1 cells (25 mM Tris-HCl pH7.5, 150 mM NaCl, 5 mM EDTA, 10% glycerol, 0.5% NP40); Ig of the same isotype as control; four biological replicates; trypsin digestion, nano-LC-MS
[2] = target: exportin 1 E571K mutant (XPO1^E571K) (human (endogenous in MedB1 and UH-01)) (UniProt O14980); test: as above

binding [1] | binding [2] | Substance
binds |  | DDX41 (from UniProt Q9UJV9 1-622)
 | binds | karyopherin β1 (importin β1, KPNB1, IPO1) (from UniProt Q14974 1-876)
